{"sequences": {"note": "Protein sequences, listed by entry. Tags and fused reporters are not part of them. Lines headed by an entry give the natural chain unless they say otherwise; changes in a name come on top.", "UniProt O14745": "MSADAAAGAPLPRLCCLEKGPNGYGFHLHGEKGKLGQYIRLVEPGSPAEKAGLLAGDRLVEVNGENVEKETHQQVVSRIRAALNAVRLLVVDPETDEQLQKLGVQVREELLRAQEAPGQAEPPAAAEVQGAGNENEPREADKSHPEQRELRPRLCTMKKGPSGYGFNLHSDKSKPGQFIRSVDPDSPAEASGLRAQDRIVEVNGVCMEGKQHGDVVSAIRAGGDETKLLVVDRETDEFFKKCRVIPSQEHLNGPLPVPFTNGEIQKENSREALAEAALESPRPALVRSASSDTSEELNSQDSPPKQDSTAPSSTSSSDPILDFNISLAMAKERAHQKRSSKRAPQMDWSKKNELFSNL", "UniProt Q15418": "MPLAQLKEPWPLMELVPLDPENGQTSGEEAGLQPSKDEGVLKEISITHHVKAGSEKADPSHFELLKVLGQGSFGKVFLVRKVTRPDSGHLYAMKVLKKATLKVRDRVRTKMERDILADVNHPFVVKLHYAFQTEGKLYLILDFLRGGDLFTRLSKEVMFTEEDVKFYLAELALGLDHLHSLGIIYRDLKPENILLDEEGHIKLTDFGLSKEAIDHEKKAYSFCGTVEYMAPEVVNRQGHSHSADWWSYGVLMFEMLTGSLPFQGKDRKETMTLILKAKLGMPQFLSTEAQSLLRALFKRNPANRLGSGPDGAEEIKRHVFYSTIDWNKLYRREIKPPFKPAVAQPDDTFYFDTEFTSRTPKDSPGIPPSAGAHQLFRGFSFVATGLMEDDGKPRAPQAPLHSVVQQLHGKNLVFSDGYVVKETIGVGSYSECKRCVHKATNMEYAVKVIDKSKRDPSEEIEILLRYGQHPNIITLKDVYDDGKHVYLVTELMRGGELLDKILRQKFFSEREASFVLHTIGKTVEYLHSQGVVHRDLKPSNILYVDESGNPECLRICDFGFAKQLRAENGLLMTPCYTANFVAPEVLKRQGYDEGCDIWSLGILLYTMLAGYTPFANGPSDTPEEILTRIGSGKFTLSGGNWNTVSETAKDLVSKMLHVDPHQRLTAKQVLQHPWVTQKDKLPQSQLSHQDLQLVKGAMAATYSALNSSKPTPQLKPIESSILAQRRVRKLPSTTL", "UniProt P51812": "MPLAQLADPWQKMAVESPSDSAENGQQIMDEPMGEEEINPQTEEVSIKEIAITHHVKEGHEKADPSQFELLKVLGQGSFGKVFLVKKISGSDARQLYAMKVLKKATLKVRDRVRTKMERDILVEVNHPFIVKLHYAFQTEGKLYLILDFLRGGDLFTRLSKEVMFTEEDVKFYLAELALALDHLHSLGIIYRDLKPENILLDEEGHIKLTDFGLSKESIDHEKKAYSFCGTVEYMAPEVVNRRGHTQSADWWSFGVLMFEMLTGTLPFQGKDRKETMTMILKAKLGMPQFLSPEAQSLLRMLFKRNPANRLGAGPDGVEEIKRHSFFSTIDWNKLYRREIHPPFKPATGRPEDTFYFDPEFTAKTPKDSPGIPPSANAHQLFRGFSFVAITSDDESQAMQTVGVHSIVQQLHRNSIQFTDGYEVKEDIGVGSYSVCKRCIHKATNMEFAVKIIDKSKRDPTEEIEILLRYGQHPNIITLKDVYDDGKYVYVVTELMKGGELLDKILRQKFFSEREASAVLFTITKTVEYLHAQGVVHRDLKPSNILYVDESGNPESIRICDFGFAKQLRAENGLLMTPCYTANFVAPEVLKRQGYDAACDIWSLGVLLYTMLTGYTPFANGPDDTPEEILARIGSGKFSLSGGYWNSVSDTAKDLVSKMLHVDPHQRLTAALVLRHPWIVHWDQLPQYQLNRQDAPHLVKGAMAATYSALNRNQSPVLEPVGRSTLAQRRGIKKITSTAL", "UniProt Q15349": "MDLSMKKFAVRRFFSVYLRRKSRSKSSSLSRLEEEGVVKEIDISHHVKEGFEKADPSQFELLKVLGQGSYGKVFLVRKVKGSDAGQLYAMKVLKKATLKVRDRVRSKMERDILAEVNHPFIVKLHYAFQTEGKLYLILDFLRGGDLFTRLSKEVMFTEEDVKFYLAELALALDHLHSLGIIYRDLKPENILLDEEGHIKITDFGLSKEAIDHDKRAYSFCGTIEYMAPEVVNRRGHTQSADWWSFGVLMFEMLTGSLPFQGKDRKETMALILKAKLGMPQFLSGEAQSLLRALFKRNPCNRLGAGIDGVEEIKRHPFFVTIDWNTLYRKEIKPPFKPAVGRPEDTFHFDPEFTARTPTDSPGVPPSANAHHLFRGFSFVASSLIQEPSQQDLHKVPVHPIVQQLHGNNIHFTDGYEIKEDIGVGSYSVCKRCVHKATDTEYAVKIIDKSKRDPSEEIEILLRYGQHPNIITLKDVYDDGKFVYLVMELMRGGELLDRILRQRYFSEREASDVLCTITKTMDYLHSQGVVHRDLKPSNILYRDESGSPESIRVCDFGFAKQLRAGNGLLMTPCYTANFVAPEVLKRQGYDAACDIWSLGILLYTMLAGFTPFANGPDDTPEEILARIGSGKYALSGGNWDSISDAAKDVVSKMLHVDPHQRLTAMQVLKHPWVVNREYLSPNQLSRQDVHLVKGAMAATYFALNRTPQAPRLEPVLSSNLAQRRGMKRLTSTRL"}, "source": "paper PMC4891120", "note": "Results are given in words; binding and its absence hold for the method and conditions named. In cells and extracts the contact can be indirect. Binding calls can cover weak binding; strength is not graded here.", "data": [{"molecular_target": "GST-fused first PDZ domain of EBP50 (human) (UniProt O14745)", "experiment": "pull-down; GST fusions of EBP50 captured on glutathione-Sepharose 4B beads, mixed with lysate (CSK buffer) of transfected HeLa or HEK293 cells, overnight at 4°C, washed three times with CSK buffer; Western blotting; only the target purified", "values": [{"substance": "Myc-tagged full-length RSK1 (p90 ribosomal S6 kinase 1) (from UniProt Q15418 1-735) (enzyme)", "binding": "binds"}, {"substance": "RSK2 (p90 ribosomal S6 kinase 2) (from UniProt P51812 1-740) (enzyme)", "binding": "binds"}, {"substance": "RSK3 (p90 ribosomal S6 kinase 3) (from UniProt Q15349 1-733) (enzyme)", "binding": "binds"}]}]}
